# Measurements as given in PubChem BioAssay (EPA / NIEHS).
# Inconclusive results, whose numbers are uncertain, are shown with a selection of clear calls. For some of these results: Potencies beside an inconclusive call are fits to weak or partial responses and may not hold up. Calls of active or inactive are those of the source. The calls were made as follows: active = hit-call score of the fitted dose curve at least 0.9, where 1 is the maximum; inconclusive = response in the unintended direction; inactive = score below 0.9.
# Key:
# [1] = TAMU_PeakParms_SingleDonor1434_Asystole: Texas A&M University (TAMU) 1.5-hr Human Induced Pluripotent Stem Cell (iPSC)-derived Cardiomyocytes Calcium (Ca+2) Flux Assay for Cardiotoxicity: Asystole (quiescence of beating) (AID 2284328)
# Method in brief: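 Human iPSC-derived cardiomyocytes (donor 1434) were exposed to 0.2, 1, 10 and 100 uM compound in 0.5% DMSO for 90 min at 37C. Ca2+-dye fluorescence gave average peak frequency; POD is EC95, a 95% beat-rate drop versus DMSO.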
# [2] = tested on: SRY-box transcription factor 2 (SOX2) Protein Expression, Deisenroth Lab, SOX2 (gene 6657); test: CCTE_Deisenroth_DEVTOX-GLR_Endo_SOX2: CCTE's DevTox GLR-Endo Assay Evaluation of SRY-box transcription factor 2 (SOX2) Protein Expression, Deisenroth Lab (AID 2284412)
# Method in brief: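 Endpoint is percent SOX2-positive cells (SOX2+ count/total cells) minus 0.2% DMSO control, from high-content imaging of fixed, nuclear-stained RUES2-GLR cells. Dosing twice at 24 h intervals over 48 h differentiation, 1 nM–200 uM in 10 points.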
# [3] = tested on: SRY-box transcription factor 17 (SOX17) Protein Expression, Deisenroth Lab, SOX17 (gene 64321); test: CCTE_Deisenroth_DEVTOX-GLR_Pluri_SOX17: CCTE's DevTox GLR-Pluri Assay Evaluation of SRY-box transcription factor 17 (SOX17) Protein Expression, Deisenroth Lab (AID 2284427)
# Method in brief: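 Seed cells 24 h; differentiate 48 h, dosing at 0 and 24 h (1 nM - 200 uM); fix, stain nuclei, image 5 fields per well; count SOX17+ cells over total cells and subtract 0.2% DMSO control.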
# [4] = tested on: Brachyury (BRA) Protein Expression, Deisenroth Lab, TBXT (gene 6862); test: CCTE_Deisenroth_DEVTOX-GLR_Pluri_BRA: CCTE's DevTox GLR-Pluri Assay Evaluation of Brachyury (BRA) Protein Expression, Deisenroth Lab (AID 2284429)
# Method in brief: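 Mesoderm readout after 48 h differentiation of human RUES2-GLR cells, dosed twice (24-h intervals) at 1 nM - 200 uM. BRA+ frequency from fluorescence imaging of fixed, nuclear-stained cells, DMSO-corrected.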
# [5] = VALA_TUBIPS_Antagonist_CellCount: Viability Assessment in the VALA Sciences human iPS-derived Endothelial Tubule Formation (TUBIPS) Antagonism Assay (AID 2284335)
# [6] = VALA_TUBHUV_Antagonist_TubuleLength: VALA Sciences human Umbilical Vein Endothelial Tubule Formation (TUBHUV) Antagonism Assay (AID 2284325)
# Method in brief: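 Tubule length was imaged via CD31 immunofluorescence after a further 3-day compound exposure in 10 ng/ml VEGF, following 3-day pre-culture of HUVEC with HDF at 1:3. Vehicle 0.1% DMSO; suramin (100 uM) inhibition control.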
# [7] = VALA_MIGHUV1_ScratchOnly_WoundArea: VALA Sciences human Umbilical Vein Endothelial Cell Migration (MIGHUV) Assay, Area of Scratch Wound Inhibited Recovery (AID 2284336)
# Method in brief: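 Wound area remaining after 24 h recovery imaged by Hoechst nuclear fluorescence in scratched HUVEC cultures, chemicals added within 30 min of scratching across a 6-point series. Gain of signal fitted against 0.1% DMSO; cytochalasin D positive control.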
# [8] = VALA_TUBHUV_Agonist_TubuleLength: VALA Sciences human Umbilical Vein Endothelial Tubule Formation (TUBHUV) Agonism Assay (AID 2284337)
# Method in brief: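 Tubule length quantified by CD31 immunofluorescence imaging after fixation. HUVEC-HDF co-cultures (1:3) pre-grown 3 days with 10 ng/ml VEGF, then dosed 3 days in VEGF medium; 0.1 % DMSO vehicle baseline.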
# [9] = CCTE_Mundy_HCI_iCellGluta_NOG_NeuronCount: CCTE's Neurite Outgrowth Assay in iCellGluta cells for Neuron Count, Mundy Lab (AID 2284340);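 also: cells fixed about 48 h after compound addition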
# Method in brief: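 Neuron count read by automated high-content imaging of Hoechst 33342 and betaIII-tubulin/Alexa Fluor-488 labelling in human iPSC glutamatergic neurons. Activity fitted relative to DMSO.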
# SERPINA7 (gene 6906) = test: CCTE_GLTED_hTBG: CCTE's human Thyroxine-binding Globulin (TBG) Inhibition Assay, Great Lakes Toxicology and Ecology Division (GLTED) Lab (AID 2284343);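 also: active chemicals lower fluorescence versus DMSO baseline by displacing probe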
# Method in brief: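 Cell-free displacement of the fluorescent probe ANSA from human thyroxine-binding globulin after 2 h exposure. Read-out at ex 380/em 475 nm; DMSO baseline.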
# [10] = VALA_TUBIPS_Agonist_CellCount: Viability Assessment in the VALA Sciences human iPS-derived Endothelial Tubule Formation (TUBIPS) Agonism Assay (AID 2284338)
smiles,measurement,setting,value
c1ccc2[nH]c(-c3cscn3)nc2c1,outcome,[1],inactive
CC1(C)[C@@H]2CC[C@@]1(C)C(=O)C2,AC50,[2],inconclusive: 100 µM
same,AC50,[3],inconclusive: 100 µM
same,AC50,[4],inconclusive: 100 µM
N[C@@H](Cc1cc(I)c(Oc2ccc(O)c(I)c2)c(I)c1)C(=O)O,AC50,[5],inconclusive: 0.00667 µM
CN(C)c1ccc(C(=C2C=CC(=[N+](C)C)C=C2)c2ccc(N(C)C)cc2)cc1,AC50,[1],active: 0.589 µM
CC[C@H](C)C(=O)O[C@H]1C[C@@H](C)C=C2C=C[C@H](C)[C@H](CC[C@@H]3C[C@@H](O)CC(=O)O3)[C@H]21,AC50,[2],active: 62.1 µM
same,AC50,[3],active: 100 µM
CCCCc1oc2ccccc2c1C(=O)c1cc(I)c(OCCN(CC)CC)c(I)c1,AC50,[2],active: 31 µM
c1ccc2c(c1)ccc1cc3c(ccc4ccccc43)cc12,AC50,[1],inconclusive: 50 µM
O=C(O)Cc1cc(I)c(Oc2cc(I)c(O)c(I)c2)c(I)c1,outcome,[6],inactive
same,AC50,[5],inconclusive: 0.00703 µM
CCCc1cc(=O)[nH]c(=S)[nH]1,outcome,[6],inactive
same,AC50,[5],inconclusive: 0.00129 µM
same,outcome,[7],inactive
same,AC50,[2],inconclusive: 5.62e-07 µM
COC(=O)c1ccc(O)cc1,outcome,[6],inactive
same,outcome,[5],inactive
same,AC50,[7],inconclusive: 50 µM
same,AC50,[8],inconclusive: 15.7 µM
O=P(O)(O)CCC(F)(F)C(F)(F)C(F)(F)C(F)(F)C(F)(F)C(F)(F)C(F)(F)C(F)(F)F,AC50,[9],inconclusive: 15 µM
CN(Cc1cnc2nc(N)nc(N)c2n1)c1ccc(C(=O)N[C@@H](CCC(=O)O)C(=O)O)cc1,AC50,[2],inconclusive: 0.000749 µM
same,outcome,[4],inactive
CC1=NN(c2cc(S(=O)(=O)O)ccc2Cl)C(=O)C1N=Nc1ccccc1 (centres undefined),outcome,SERPINA7 (gene 6906),inactive
NC(=O)N1c2ccccc2C=Cc2ccccc21,AC50,[2],active: 16.7 µM
Cc1nn(C)c(Oc2ccccc2)c1C=NOCc1ccc(C(=O)OC(C)(C)C)cc1,AC50,[9],active: 6.47 µM
Oc1ccc2ccccc2c1N=Nc1ccccc1,AC50,[6],inconclusive: 0.00662 µM
same,outcome,[5],inactive
same,outcome,[8],inactive
same,AC50,[10],active: 31.9 µM
O=C(OCc1ccccc1)c1ccc(O)cc1,AC50,SERPINA7 (gene 6906),inconclusive: 0.00187 µM
CC(C)CCCCCCc1ccc(O)cc1,outcome,[6],inactive
same,AC50,[5],inconclusive: 50 µM
Cc1cc(Cc2cc(C)cc(C(C)(C)C)c2O)c(O)c(C(C)(C)C)c1,AC50,SERPINA7 (gene 6906),active: 2.6 µM

# Some of the entries above in a different format:
smiles	measurement	setting	value
O=C(O)Cc1cc(I)c(Oc2cc(I)c(O)c(I)c2)c(I)c1	AC50	[5]	inconclusive: 0.00703 µM
CCCc1cc(=O)[nH]c(=S)[nH]1	AC50	[2]	inconclusive: 5.62e-07 µM
CN(Cc1cnc2nc(N)nc(N)c2n1)c1ccc(C(=O)N[C@@H](CCC(=O)O)C(=O)O)cc1	AC50	[2]	inconclusive: 0.000749 µM
same	outcome	[4]	inactive
NC(=O)N1c2ccccc2C=Cc2ccccc21	AC50	[2]	active: 16.7 µM
Cc1cc(Cc2cc(C)cc(C(C)(C)C)c2O)c(O)c(C(C)(C)C)c1	AC50	SERPINA7 (gene 6906)	active: 2.6 µM
